From patent US12281205B2, “Modified antibacterial compositions and methods” (priority 2016, dated 2025)
Where no end group is shown, it is not given here.

System: sheep red blood cells (RBCs)
Assay: Hemolysis assay
Details: therapeutic index, MBC50 against E. coli

| Substance | HC50/MBC50 (E. coli) |
| --- | --- |
| GIGKFLHSAKKFGKAFVGEIMNS-NH2 [Magainin II] | 3 |
| Ovispirin: antimicrobial peptide NH2- KNLRRIIRKIIHIIKKYG-COOH (SNAPP conjugate) | 15 |
